PubChem BioAssay AID1508600 (Functional Genomics Laboratory (NCATS/FGL), 2020)
The whole screen tested about 53,000 sequences, of which about 3,700 (7%) were called active.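 Rule for the calls: active = gene knockdowns whose robust z-score for IL-1 alpha signal is at least 2 or at most -2, so actives lie on both sides; inactive = the rest.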 This is one part of the list.

test: Components of the Cytosolic LPS Sensing Pathway: Gene Identification via Genome-wide siRNA Screen; settings: RAW264.7 macrophages, IL-1a HTRF, actives lie on both sides, screened at 100 nM (by protocol), cells primed 5 h with Pam3CSK4 first;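 note: robust z of the log signal after scaling to non-targeting control siRNA wells of the plate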
Summary of the method: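 Read-out: IL-1a HTRF on supernatant, divided by plate negative-control median ×100, log-transformed and converted to robust z-score. Cells were RAW264.7 given 100 nM siRNA, Pam3CSK4-primed 5 hours, then LipidA-transfected 24 hour.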

Sequence | z-score
GGCGAAUCUCAUUAGGGAGTT against Ndor1 | inactive: 0.907
GGACUCUGCUUCCAUACUGTT against Pwwp3b | inactive: -0.336
GCAUGCUUACGGUCUCCAATT against Ccl1 | inactive: 1.59
GGUGUCACCAAGAAUGAUGTT against Ceacam10 | inactive: 0.415
GGAAUGGUAUUUCUAUUGUTT against Plek | inactive: -0.529
AAGGGUGCCUUAAAAAAACTT against Olfr136 | inactive: 0.0792
GGAGAAGGAGAAACAGAAATT against Pmepa1 | inactive: -1.27
GCUACAUGAUGUUCAUACUTT against Srpx | inactive: 0.38
GGGCAAGAGGAUUAUGACATT against Cdc42 | inactive: -0.527
GGUGGGCACACUUAGGUUUTT against Fam167b | inactive: 1.11
GAGAUGAUGGAUGCCCAGCTT against Ndufb7 | inactive: 1.67
GGAACGAUCGAAACAAGAATT against Rarg | inactive: 0.627
GGACUAAUGUCUCCAACUATT against Rdh7 | inactive: -0.0194
GGUGUGUGACUCAGAUACUTT against Has2 | inactive: -1.15
GGAAAGAUUUAUUUUGACGTT against Vnn3 | inactive: 0.286
GUUACAGCUGCCUUUGUUUTT against Olfr893 | active: -2.49
GGCCUGGAGGACUUUAUAATT against Cyp2a4 | inactive: -1.13
GGAAAAGUGACGGUAUCUATT against Rpsa | active: -2.04
GCAAAUUAUUGGAUGAUGCTT against Glod4 | inactive: 0.388
GGGUCAAUUGCCAAAACUCTT against Arhgdia | inactive: 0.171
GUACUCUUUUUCAUCUUCCTT against Olfr1010 | inactive: -1.5
CGAGAAAUUGUAGAAGUAATT against Med30 | inactive: -0.214
GGCAAUCCAGACGAUAUCUTT against Abca1 | inactive: -0.735
GGCAGAACACCUUCUUAGUTT against Dars2 | inactive: -0.425
CCUAUUUGUAGGUGAUGUUTT against B3gnt7 | inactive: -0.445
GGGUUAUGGACACUACCCATT against Tnk1 | inactive: -1.84
GCUAUCAAAGCUAAUACAUTT against Mrps9 | active: 3.41
GGAAAGACAGGUAAACUCATT against Slc6a17 | inactive: 0.31
CCAUCUAUGAUCCCAGAGCTT against Fbxw9 | inactive: -1.91
GGCUCCAACAUAGAAAUGATT against Tpbpa | inactive: 0.38

Part of the list above, field by field.
GUACUCUUUUUCAUCUUCCTT against Olfr1010
  z-score: inactive: -1.5
GGCAAUCCAGACGAUAUCUTT against Abca1
  z-score: inactive: -0.735
